# Library screen at single concentrations

Protein sequences, listed by entry. Tags and fused reporters are not part of them. Residues count along the entry.
UniProt A4I591, 1-473: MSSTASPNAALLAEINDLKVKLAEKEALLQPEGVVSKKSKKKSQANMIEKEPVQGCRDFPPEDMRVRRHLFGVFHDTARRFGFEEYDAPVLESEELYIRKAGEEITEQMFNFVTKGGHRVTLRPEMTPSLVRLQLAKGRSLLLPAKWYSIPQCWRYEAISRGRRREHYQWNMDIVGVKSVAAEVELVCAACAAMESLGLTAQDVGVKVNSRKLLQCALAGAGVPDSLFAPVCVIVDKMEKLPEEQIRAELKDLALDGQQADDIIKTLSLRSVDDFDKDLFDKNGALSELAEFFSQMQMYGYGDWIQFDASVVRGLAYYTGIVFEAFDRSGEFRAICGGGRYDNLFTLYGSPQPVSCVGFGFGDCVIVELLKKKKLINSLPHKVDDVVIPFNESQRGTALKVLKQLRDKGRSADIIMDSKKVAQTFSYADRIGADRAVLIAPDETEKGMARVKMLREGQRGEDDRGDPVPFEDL
UniProt P9WFT3, whole entry: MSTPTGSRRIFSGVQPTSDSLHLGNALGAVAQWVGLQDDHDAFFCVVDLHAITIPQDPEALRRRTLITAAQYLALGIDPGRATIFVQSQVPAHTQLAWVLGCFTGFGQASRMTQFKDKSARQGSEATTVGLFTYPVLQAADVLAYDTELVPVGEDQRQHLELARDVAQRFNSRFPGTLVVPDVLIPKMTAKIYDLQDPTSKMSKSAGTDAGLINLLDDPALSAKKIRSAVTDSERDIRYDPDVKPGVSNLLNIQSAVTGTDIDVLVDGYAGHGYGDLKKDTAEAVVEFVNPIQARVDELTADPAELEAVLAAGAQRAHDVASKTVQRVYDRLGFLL

The values are deposited in ChEMBL (CHEMBL3988442, “University of Dundee, Small-Polar-MMV Screening Library” (2021)).

LiHisRS: 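Histidine-tRNA ligase, Leishmania infantum (UniProt A4I591). Enzyme assay of histidyl-tRNA synthetase; the read-out is not stated. Concentration: 30 µM. Direction is inferred from retests: higher values go with stronger inhibition. The assay is labelled LdHisRS but filed under L. infantum. Of about 69,000 compounds tested this way, about 410 (0.6%) reached 50% or more in at least one test.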
MtTrpRS: 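Enzyme assay of tryptophanyl-tRNA synthetase; the read-out is not stated. Target: Tryptophan-tRNA ligase, Mycobacterium tuberculosis (UniProt P9WFT3). Concentration: 10 µM. Higher most likely means stronger inhibition; the record gives no direction and few retests gave an IC50. About 65,000 compounds were tested under these conditions; 0.098% (about 64) showed 50% or more at least once.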

Each number is a percent effect as filed. The controls that fix the scale are not given in the record; negative values are as filed. This is an unselected part of the compounds tested. A dash means the value is not listed here; it may have been measured.

Compound	LiHisRS	MtTrpRS
Cn1cc(C2(C)CN(C(=O)Nc3ccccc3F)CCO2)cn1 (stereo not shown)	3.665%	-7.225%
Cc1ccc(N2CCCC(N(C)Cc3c(C)noc3C)C2)nn1 (stereo not shown)	12.9%	0.7807%
CCCOCCN1CCC2(CC1)CC(c1ccccc1)C(=O)N2C (stereo not shown)	-14.56%	-2.664%
CN(C)C(=O)CN1CCN(Cc2coc(-c3cccc(F)c3)n2)CC1	8.696%	-5.258%
NC(=O)CC1CCN(C(=O)c2cccn2Cc2cccs2)CC1	1.923%	-2.901%
Cc1occc1C(=O)N1CCC2(CCN(Cc3nccs3)CC2)C1	28.77%	-4.739%
O=C(NC1CCCCC1)[C@H]1CNC[C@@H](COc2cccnc2)C1	12.12%	2.624%
Cc1cc(S(=O)(=O)N2CCCc3cc(F)c(F)cc32)sc1C(=O)O	-4.464%	1.086%
Cn1c2ccccc2c2ncn(CCCN3CCOCC3)c(=O)c21	-4.348%	-6.515%
CCn1nc(C)c2nc(C(C)C)nc(N3CCCCC3)c21	8.491%	-4.557%
Cc1ccc(-c2nc(CC3CCN(C)CC3)no2)cc1N1CCNC1=O	14.16%	-0.8163%
O=C(NCCn1ccc(-c2ccccn2)n1)c1ccncc1	7.692%	-0.3564%
Cc1nc(CNC(=O)Nc2cc(C(F)(F)F)c[nH]c2=O)cs1	11.11%	4.71%
O=C(NCC1CCC2(CCNCC2)CO1)c1ccno1 (stereo not shown)	0%	-2.697%
CCC(C)[C@H](NC(=O)c1ccc(F)cc1-n1cnnn1)C(=O)OC (stereo partly shown)	1.087%	-2.488%
CCCn1nc(C)c(-c2cncn2CC2(N(C)C)CCC(C)CC2)c1C (stereo not shown)	12.86%	3.735%
Cc1nc(O)cc(C2CCCN(C(=O)CN(C)c3ccccc3)C2)n1 (stereo not shown)	13.33%	-2.805%
NC(=O)c1ccc(CN2C(=O)C3(CCNCC3)Nc3ccccc32)cc1	27.43%	5.444%
CN(C)C1CCCN(C(=O)NCCc2cc(F)ccc2F)C1 (stereo not shown)	11.96%	-3.11%
CN1CC(=O)N(c2ccccc2)CC12CCN(C(=O)c1ccnnc1)C2 (stereo not shown)	1.389%	16.4%
COc1ccc2c(c1)CCCC2CC(=O)NCC(C)(C)C(=O)O (stereo not shown)	0%	1.727%
CCCC(C(=O)NC1CCN(S(C)(=O)=O)CC1)c1ccccc1 (stereo not shown)	17.5%	-1.445%
Cc1ccc(CN2CC(C(=O)Nc3ccccc3)C3(CCOCC3)C2)o1 (stereo not shown)	20.55%	2.169%
CCn1cc2c(n1)CN(S(=O)(=O)Cc1ccccc1)CC2COC (stereo not shown)	2.564%	18.69%
CCN(CC)C(=O)CC[C@@H]1CNC(=O)[C@@H]2C[C@H](NC(=O)C3CC3)CN12	11.11%	-2.033%
CC1(C)CN(C(=O)c2ncc(F)cc2F)CCC1(O)CN1CCOCC1 (stereo not shown)	5.714%	0.5435%
Cc1ccc(CN(C)C(=O)NCC(C)(C)CCS(C)(=O)=O)s1	-2.857%	-3.862%
CC(C)c1nsc(N2CCSCC2)n1	15.66%	-1.496%
CCc1ccc(C2COCCN2C(=O)Nc2ccc(C(N)=O)c(Cl)c2)o1 (stereo not shown)	6.667%	1.868%
COCCNC(=O)[C@H]1C[C@@H]2CCN(c3ncccn3)C[C@@H]2O1	5.556%	-9.891%
CCCn1cc(C(=O)N2CCCC2(C)c2nc(C)cc(C)n2)cn1 (stereo not shown)	9.929%	4.918%
CCOC1CCCN(C(=O)c2ccccc2NCc2cccnc2)C1 (stereo not shown)	10.2%	2.937%
CCOC(=O)c1coc(N2CCC(C(O)CC(C)C)CC2)n1 (stereo not shown)	8.264%	-4.222%
CC(=O)Nc1cc(C2CC2)nn1-c1nc(C)c(C)c(=O)[nH]1	25.97%	1.483%
CN(C(=O)CC1=CCCCC1)C1CCCN(CCc2ccccc2)C1 (stereo not shown)	8.197%	-3.606%
CC(C)(C)CC(=O)NC[C@H]1OC[C@@H](NCc2ccccn2)[C@@H]1O	20.27%	2.352%
Cc1nn(C)c(C)c1CN1CCNCC1	0%	-0.6477%
COc1ccc(C(C)NC(=O)Nc2nnc(C)s2)cc1OC (stereo not shown)	11.48%	-2.902%
COc1ccc(CNCCC(=O)N2CCc3sccc3C2)cc1O	26.88%	1.575%
COCCNC(=O)c1cc(C)nc(C2CCN(C)CC2)n1	-23.94%	-7.677%
COc1ccc(C2CCCN2C(=O)NCCn2ccnc2)cc1OC (stereo not shown)	-0.9259%	-2.941%
Cc1nc(C(=O)N2CCC(Cc3cnc4[nH]ccc4c3)C2)co1 (stereo not shown)	0%	2.25%
CS(=O)(=O)CCn1ccc(NC(=O)CCc2cccc(F)c2)n1	15.29%	-1.227%
CNc1ncccc1CN1CCN(C)CC(C(N)=O)C1 (stereo not shown)	11.43%	30.37%
CCN1CCC2(CCN(Cc3ccc(OC)cc3)CC2)C1=O	7.692%	-0.4361%
Cc1ccc(C(=O)NC2CCCCNC2=O)c(=O)[nH]1 (stereo not shown)	21.98%	6.093%
NC(C(=O)N1CCSc2ccccc2C1)c1ccccc1 (stereo not shown)	22.45%	-0.8811%
CC(=O)Cc1c(C)nn(-c2cncc(C(N)=O)c2)c1C	16.46%	5.556%
O=C(NS(=O)(=O)Cc1cc(-c2ccccc2)no1)C1CCOCC1	6.349%	-0.4955%
c1cncc(N2CCO[C@H]3CN(CC4CCOC4)C[C@H]32)c1 (stereo partly shown)	17.12%	-
COc1ccc(CNC(=O)c2ccc(Cl)cc2F)cc1C(=O)O	16.98%	1.814%
O=C1CCN(C(=O)C2(c3ccc(Br)cc3)CC2)CCN1	12.7%	1.321%
O=C(CN1CCCC1Cn1cncn1)Nc1nncs1 (stereo not shown)	18.52%	2.037%
Cc1nn(C)c2ncnc(N3CCC(O)(CN4CCCC4)CC3)c12	18.03%	4.67%
CC(C)CCn1nc(CNc2ccc(Br)cc2)nc1O	-2.5%	2.847%
CS(=O)(=O)N1CCC2(CC1)CC(OCC1CCOCC1)CO2 (stereo not shown)	2.632%	-5.591%
Cc1ncc2c(n1)CN(CC(=O)Nc1c(C)nn(C)c1C)CC2	9.821%	-1.834%
Cn1ccnc1SCCNc1cc(N2CCOCC2)ncn1	18.37%	1.097%
Cn1ncc2c1NC(=O)CC2c1ccccc1Br (stereo not shown)	-2.5%	2.576%
CCc1noc(C(C)N2CCC(N3CCCC3)CC2)n1 (stereo not shown)	28.38%	9.206%
CCc1ccc(C(=O)N2CC[C@](C)(O)[C@H](C)C2)[nH]1	12.5%	-5.789%
CN(CCCc1cnn(C)c1)C(=O)C1CCN(C(=O)C2CCC2)CC1	13.33%	-1.852%
COc1ccc(CCC(=O)Nc2ccncc2C)cc1	4%	-9.461%
CCc1cc(O)n2nc(C3CCN(C(=O)c4ccncc4)CC3)cc2n1	4.225%	2.375%
O=C(NC[C@H]1OC[C@@H]2CCN(Cc3ccco3)C[C@@H]21)c1ccsc1	1.905%	-0.9046%

For reference, 6 entries once more:

{"compound": "Cc1ccc(N2CCCC(N(C)Cc3c(C)noc3C)C2)nn1", "stereo": "stereo not shown", "LiHisRS": 12.9, "MtTrpRS": 0.7807}
{"compound": "CN1CC(=O)N(c2ccccc2)CC12CCN(C(=O)c1ccnnc1)C2", "stereo": "stereo not shown", "LiHisRS": 1.389, "MtTrpRS": 16.4}
{"compound": "CCCOCCN1CCC2(CC1)CC(c1ccccc1)C(=O)N2C", "stereo": "stereo not shown", "LiHisRS": -14.56, "MtTrpRS": -2.664}
{"compound": "CNc1ncccc1CN1CCN(C)CC(C(N)=O)C1", "stereo": "stereo not shown", "LiHisRS": 11.43, "MtTrpRS": 30.37}
{"compound": "CCOC1CCCN(C(=O)c2ccccc2NCc2cccnc2)C1", "stereo": "stereo not shown", "LiHisRS": 10.2, "MtTrpRS": 2.937}
{"compound": "CS(=O)(=O)CCn1ccc(NC(=O)CCc2cccc(F)c2)n1", "LiHisRS": 15.29, "MtTrpRS": -1.227}